Source: publication PMC4891948
These are yes or no findings as the source states them, for the method shown. Binding seen in cells or lysates may run through a third protein. Some results given as binding are weak or reduced against the parent protein; the word gives no strength.

Chains of the proteins cited; added tags and fusions are not shown.
UniProt E2R766: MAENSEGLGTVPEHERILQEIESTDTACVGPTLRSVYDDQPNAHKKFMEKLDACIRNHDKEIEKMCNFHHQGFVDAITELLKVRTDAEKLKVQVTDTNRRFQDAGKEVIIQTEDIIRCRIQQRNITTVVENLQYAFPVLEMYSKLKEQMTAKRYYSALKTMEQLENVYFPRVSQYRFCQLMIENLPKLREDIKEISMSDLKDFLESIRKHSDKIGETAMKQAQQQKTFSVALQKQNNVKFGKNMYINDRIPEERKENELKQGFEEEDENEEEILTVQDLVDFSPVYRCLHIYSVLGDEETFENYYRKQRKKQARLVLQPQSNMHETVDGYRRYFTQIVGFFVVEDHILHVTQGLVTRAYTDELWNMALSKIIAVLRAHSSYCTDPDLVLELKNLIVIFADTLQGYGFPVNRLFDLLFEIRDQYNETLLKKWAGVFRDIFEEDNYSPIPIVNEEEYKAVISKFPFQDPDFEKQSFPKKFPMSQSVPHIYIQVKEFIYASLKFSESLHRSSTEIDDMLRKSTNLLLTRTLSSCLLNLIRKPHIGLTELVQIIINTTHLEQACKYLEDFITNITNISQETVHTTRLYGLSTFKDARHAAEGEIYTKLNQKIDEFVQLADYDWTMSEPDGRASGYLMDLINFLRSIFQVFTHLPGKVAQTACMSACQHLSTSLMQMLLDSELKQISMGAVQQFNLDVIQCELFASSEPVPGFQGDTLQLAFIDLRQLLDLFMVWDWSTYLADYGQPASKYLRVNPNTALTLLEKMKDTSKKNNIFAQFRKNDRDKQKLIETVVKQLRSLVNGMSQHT

Molecular target: Sec6 (canine (endogenous in MDCK))
Assay: co-IP; MDCK RIPA lysates immunoprecipitated with cocktails of anti-Sec6 mAbs to N-terminal (NT1, NT2) or C-terminal (CT1, CT2, CT3) epitopes bound to Protein G Sepharose, 2 h at 4°C, stringent washes; immunoblot for exocyst subunits

binding: binds
Substance: Sec15 (from UniProt E2R766 1-803)
